PubChem BioAssay AID1224830 | NIAID | 2016

Assay: 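Genes whose knock-down alters the TNF-alpha reporter response to LPS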 (primary screen)
System: human THP-1 monocytic leukaemia cells, TNF dual-luciferase reporter clone, PMA-differentiated to macrophage-like cells
Reagents: siRNA pool against human genes, 50 nM
Duration: LPS for 4 h, given about 3 days after siRNA transfection
Treatment: bacterial LPS (TLR4 ligand), 10 ng/ml
Measurement: 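TNF firefly reporter luminescence divided by renilla, normalised to the plate median, then turned into a robust z-score for each replicate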
Reading the numbers: TNF reporter robust z-score: higher = stronger TNF reporter response to LPS
Call rule: 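a well is active when its z-score exceeds 2.8 or falls below -1.5; control wells carry no call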
In all, the deposit lists about 18,000 reagents; this is a random part of them. About 2,900 of all reagents (16%) count as active. 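Calls are made per well; low scores hint the gene aids the LPS response, high scores that it dampens it.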 Entries without a mark were called inactive. Repeated entries: four replicate wells of each siRNA pool. Reagent sequences are not shown.

no.	gene symbol	TNF reporter robust z-score
1	GORASP1 (golgi reassembly stacking protein 1)	-1.51 (active)
2	GORASP1 (golgi reassembly stacking protein 1)	-0.12
3	GORASP1 (golgi reassembly stacking protein 1)	-0.57
4	GORASP1 (golgi reassembly stacking protein 1)	-0.27
5	ZCCHC7 (zinc finger CCHC-type containing 7)	-0.47
6	ZCCHC7 (zinc finger CCHC-type containing 7)	-0.58
7	ZCCHC7 (zinc finger CCHC-type containing 7)	-0.94
8	ZCCHC7 (zinc finger CCHC-type containing 7)	-0.49
9	NRIP2 (nuclear receptor interacting protein 2)	-0.4
10	NRIP2 (nuclear receptor interacting protein 2)	1.12
11	NRIP2 (nuclear receptor interacting protein 2)	1.32
12	NRIP2 (nuclear receptor interacting protein 2)	0.71
13	ARHGAP30 (Rho GTPase activating protein 30)	-1.24
14	ARHGAP30 (Rho GTPase activating protein 30)	-0.81
15	ARHGAP30 (Rho GTPase activating protein 30)	-0.67
16	ARHGAP30 (Rho GTPase activating protein 30)	-0.68
17	ARMCX3 (armadillo repeat containing X-linked 3)	-0.61
18	ARMCX3 (armadillo repeat containing X-linked 3)	-1.53 (active)
19	ARMCX3 (armadillo repeat containing X-linked 3)	-0.66
20	ARMCX3 (armadillo repeat containing X-linked 3)	-0.1
21	ZBTB39 (zinc finger and BTB domain containing 39)	0.43
22	ZBTB39 (zinc finger and BTB domain containing 39)	0.11
23	ZBTB39 (zinc finger and BTB domain containing 39)	1.39
24	ZBTB39 (zinc finger and BTB domain containing 39)	-0.12
25	TCTN3 (tectonic family member 3)	-0.93
26	TCTN3 (tectonic family member 3)	0.41
27	TCTN3 (tectonic family member 3)	-0.25
28	TCTN3 (tectonic family member 3)	0.48
29	NAXE (NAD(P)HX epimerase)	-0.23
30	NAXE (NAD(P)HX epimerase)	-0.25
31	NAXE (NAD(P)HX epimerase)	-0.35
32	NAXE (NAD(P)HX epimerase)	0.2
33	ZNF878 (zinc finger protein 878)	-0.35
34	ZNF878 (zinc finger protein 878)	-0.06
35	ZNF878 (zinc finger protein 878)	0.69
36	ZNF878 (zinc finger protein 878)	0.3
37	TRAF1 (TNF receptor associated factor 1)	-0.55
38	TRAF1 (TNF receptor associated factor 1)	-0.75
39	TRAF1 (TNF receptor associated factor 1)	-0.29
40	TRAF1 (TNF receptor associated factor 1)	-1.04
41	ATP6V0D1 (ATPase H+ transporting V0 subunit d1)	0.55
42	ATP6V0D1 (ATPase H+ transporting V0 subunit d1)	0.34
43	ATP6V0D1 (ATPase H+ transporting V0 subunit d1)	-0.05
44	ATP6V0D1 (ATPase H+ transporting V0 subunit d1)	0.72
45	OR6S1 (olfactory receptor family 6 subfamily S member 1)	0.8
46	OR6S1 (olfactory receptor family 6 subfamily S member 1)	1.47
47	OR6S1 (olfactory receptor family 6 subfamily S member 1)	1.56
48	RC3H2 (ring finger and CCCH-type domains 2)	-1.66 (active)
49	RC3H2 (ring finger and CCCH-type domains 2)	0.52
50	RC3H2 (ring finger and CCCH-type domains 2)	0.12
51	RC3H2 (ring finger and CCCH-type domains 2)	-0.52
52	ADORA2B (adenosine A2b receptor)	0.45
53	ADORA2B (adenosine A2b receptor)	3.4 (active)
54	ADORA2B (adenosine A2b receptor)	0.67
55	ADORA2B (adenosine A2b receptor)	0.96

The list goes on; the last 11 above are carried over.
no.	gene symbol	TNF reporter robust z-score
45	OR6S1 (olfactory receptor family 6 subfamily S member 1)	0.8
46	OR6S1 (olfactory receptor family 6 subfamily S member 1)	1.47
47	OR6S1 (olfactory receptor family 6 subfamily S member 1)	1.56
48	RC3H2 (ring finger and CCCH-type domains 2)	-1.66 (active)
49	RC3H2 (ring finger and CCCH-type domains 2)	0.52
50	RC3H2 (ring finger and CCCH-type domains 2)	0.12
51	RC3H2 (ring finger and CCCH-type domains 2)	-0.52
52	ADORA2B (adenosine A2b receptor)	0.45
53	ADORA2B (adenosine A2b receptor)	3.4 (active)
54	ADORA2B (adenosine A2b receptor)	0.67
55	ADORA2B (adenosine A2b receptor)	0.96
56	HCN3	0.57
57	HCN3	1.38
58	HCN3	0.12
59	HCN3	-0.49
60	PPP2R1A (protein phosphatase 2 scaffold subunit Aalpha)	2.13
61	PPP2R1A (protein phosphatase 2 scaffold subunit Aalpha)	4.36 (active)
62	PPP2R1A (protein phosphatase 2 scaffold subunit Aalpha)	1.36
63	PPP2R1A (protein phosphatase 2 scaffold subunit Aalpha)	0.03
64	AMT (aminomethyltransferase)	-0.41
65	AMT (aminomethyltransferase)	0.07
66	AMT (aminomethyltransferase)	-1.28
67	AMT (aminomethyltransferase)	-0.62
68	SLC6A3	-0.94
69	SLC6A3	-1.22
70	SLC6A3	-1.13
71	SLC6A3	2.39
72	RGS10 (regulator of G protein signaling 10)	4.97 (active)
73	RGS10 (regulator of G protein signaling 10)	4.07 (active)
74	RGS10 (regulator of G protein signaling 10)	0.42
75	RGS10 (regulator of G protein signaling 10)	0.05
76	TXNDC16 (thioredoxin domain containing 16)	-1.72 (active)
77	TXNDC16 (thioredoxin domain containing 16)	-1.47
78	TXNDC16 (thioredoxin domain containing 16)	-1.48
79	TXNDC16 (thioredoxin domain containing 16)	-1.18
80	DVL1 (dishevelled segment polarity protein 1)	-0.61
81	DVL1 (dishevelled segment polarity protein 1)	-0.53
82	DVL1 (dishevelled segment polarity protein 1)	-1.11
83	DVL1 (dishevelled segment polarity protein 1)	0.18
84	ENKD1 (enkurin domain containing 1)	-0.74
85	ENKD1 (enkurin domain containing 1)	-0.78
86	ENKD1 (enkurin domain containing 1)	-0.16
87	ENKD1 (enkurin domain containing 1)	0.02
88	REPIN1 (replication initiator 1)	-1.28
89	REPIN1 (replication initiator 1)	-0.74
90	REPIN1 (replication initiator 1)	-1.16
91	REPIN1 (replication initiator 1)	-1.17
92	PEAR1 (platelet endothelial aggregation receptor 1)	-0.64
93	PEAR1 (platelet endothelial aggregation receptor 1)	-0.46
94	PEAR1 (platelet endothelial aggregation receptor 1)	-0.33
95	PEAR1 (platelet endothelial aggregation receptor 1)	-0.2
96	HYCC2 (hyccin PI4KA lipid kinase complex subunit 2)	-0.46
97	HYCC2 (hyccin PI4KA lipid kinase complex subunit 2)	0.77
98	HYCC2 (hyccin PI4KA lipid kinase complex subunit 2)	0.78
99	HYCC2 (hyccin PI4KA lipid kinase complex subunit 2)	1.53
100	ATP6V1A (ATPase H+ transporting V1 subunit A)	-0.41
101	ATP6V1A (ATPase H+ transporting V1 subunit A)	-0.27
102	ATP6V1A (ATPase H+ transporting V1 subunit A)	-1.1
103	ATP6V1A (ATPase H+ transporting V1 subunit A)	-0.2
104	GSTZ1 (glutathione S-transferase zeta 1)	-0.95
105	GSTZ1 (glutathione S-transferase zeta 1)	-0.54
106	GSTZ1 (glutathione S-transferase zeta 1)	-0.86
107	GSTZ1 (glutathione S-transferase zeta 1)	0.28
108	SLC75A1	0.5
109	SLC75A1	1.35
110	SLC75A1	0.56
111	SLC75A1	1.79
